The values below come from article PMC7510299.

These are yes or no findings as the source states them, for the method shown. For some assays here: Binding can be weak; no strength is given.

Holding throughout (test): two-hybrid; pGBKT7 (BD, bait) and pGADT7 (AD, prey) fusions co-transformed into yeast AH109; spotting on X-a-gal medium without Leu, Trp, His and Ade; 30 °C, 3–5 days; every pair tested in both directions
Test [1] concerns the target TeAGL11–2 (Tagetes erecta (marigold)).
Test [2] deals with TeAGL11–1 (Tagetes erecta (marigold)).
Test [3] addresses TeAG2 (Tagetes erecta (marigold)).
Test [4] has as its target TeAG1 (Tagetes erecta (marigold)).

Consider TeAG1 (from UniProt A0A8E4LJ76), for which the binding result is “no binding” in test [1], “binds” in test [2] and “binds” in test [3].
Turning to TeAG2 (from UniProt A0A8E4LHE8), the binding entry in test [4] is listed as “binds”.
TeAGL11–1 (from UniProt A0A7L9DJZ2): the binding result in test [1] is “no binding”; in test [4] it was “binds”.
As to TeAGL11–2 (from UniProt A0A7L9DIK2), the binding entry in test [2] and in test [4] was “no binding” throughout.
